Laboratory results published in publication PMC8115264, “Mitofusin-2 stabilizes adherens junctions and suppresses endothelial inflammation via modulation of β-catenin signaling” (Nature Communications, 2021).
These are yes or no findings as the source states them, for the method shown. Binding seen in cells or lysates may run through a third protein. Some binding calls cover weakened binding; strength is not graded here. For some assays here: Sequences can lack the tags named with a protein.

T1: vascular endothelial (VE)-cadherin (human (endogenous in HLMVECs)), P33151
T1 chain: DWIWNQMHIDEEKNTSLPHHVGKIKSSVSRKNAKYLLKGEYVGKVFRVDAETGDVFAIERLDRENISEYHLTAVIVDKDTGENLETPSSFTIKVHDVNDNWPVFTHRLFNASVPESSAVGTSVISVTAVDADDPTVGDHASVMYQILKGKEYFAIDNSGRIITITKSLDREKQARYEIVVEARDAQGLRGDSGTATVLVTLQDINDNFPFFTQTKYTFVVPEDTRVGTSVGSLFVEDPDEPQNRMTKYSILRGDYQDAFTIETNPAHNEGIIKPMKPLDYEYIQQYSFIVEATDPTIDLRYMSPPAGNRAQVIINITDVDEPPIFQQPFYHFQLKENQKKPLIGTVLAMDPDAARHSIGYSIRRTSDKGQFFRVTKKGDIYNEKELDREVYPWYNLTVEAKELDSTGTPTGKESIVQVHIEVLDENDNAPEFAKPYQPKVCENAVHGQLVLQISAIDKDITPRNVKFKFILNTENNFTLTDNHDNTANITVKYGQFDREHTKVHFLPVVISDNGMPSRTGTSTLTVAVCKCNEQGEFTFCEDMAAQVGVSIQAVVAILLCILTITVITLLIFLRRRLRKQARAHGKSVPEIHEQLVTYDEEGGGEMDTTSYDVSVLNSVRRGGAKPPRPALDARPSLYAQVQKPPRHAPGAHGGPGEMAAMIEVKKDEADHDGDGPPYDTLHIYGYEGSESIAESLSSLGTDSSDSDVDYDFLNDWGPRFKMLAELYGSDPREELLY

T2: Mitofusin-2 (human (endogenous in HLMVECs)) (UniProt O95140)
T2 sequence: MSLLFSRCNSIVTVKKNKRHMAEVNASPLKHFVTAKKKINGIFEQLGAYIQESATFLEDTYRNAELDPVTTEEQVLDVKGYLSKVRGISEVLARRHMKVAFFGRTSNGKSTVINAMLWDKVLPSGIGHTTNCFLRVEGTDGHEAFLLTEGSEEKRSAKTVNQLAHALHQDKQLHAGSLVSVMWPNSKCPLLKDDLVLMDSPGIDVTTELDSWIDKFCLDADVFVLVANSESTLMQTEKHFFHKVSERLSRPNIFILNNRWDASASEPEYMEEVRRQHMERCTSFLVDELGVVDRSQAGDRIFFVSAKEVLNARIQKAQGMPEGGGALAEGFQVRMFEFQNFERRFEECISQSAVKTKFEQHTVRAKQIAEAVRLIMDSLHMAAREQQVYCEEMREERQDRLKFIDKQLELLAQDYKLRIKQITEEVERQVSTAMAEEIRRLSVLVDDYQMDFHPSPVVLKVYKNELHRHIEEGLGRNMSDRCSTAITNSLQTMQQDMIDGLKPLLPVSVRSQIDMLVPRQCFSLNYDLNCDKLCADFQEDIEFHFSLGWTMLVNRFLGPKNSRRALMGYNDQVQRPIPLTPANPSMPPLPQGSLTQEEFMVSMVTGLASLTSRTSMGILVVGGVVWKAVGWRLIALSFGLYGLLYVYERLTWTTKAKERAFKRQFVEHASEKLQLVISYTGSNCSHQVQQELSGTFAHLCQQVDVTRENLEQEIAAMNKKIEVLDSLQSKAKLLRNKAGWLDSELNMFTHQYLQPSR


What was measured:
[1] = target: T1, vascular endothelial (VE)-cadherin …; assay: proximity ligation; in situ PLA (Duolink) on confluent HLMVECs with or without TNFα (10 ng/mL) for 6 h; mouse VE-cadherin or mouse Mfn2 antibody with rabbit β-catenin antibody; settings: remark: other sources report otherwise
[2] = target: T2, Mitofusin-2 (human (endogenous in HLMVECs)); assay: co-IP; lysate of confluent HLMVECs (50 mM HEPES pH 7.5, 120 mM NaCl, 5 mM EDTA, 1% Triton X-100); immunoprecipitation with 1 µg Mfn2 antibody, Western blot for VE-cadherin or β-catenin; resting cells, also cells treated with TNFα (10 ng/mL, 6 h), H2O2 (500 µM, 30 min), NAC pretreatment (20 mM, 30 min) or Mfn2 shRNA

binding [1] | binding [2] | Binder
binds |  | β-catenin (natural protein, human (endogenous in HLMVECs), UniProt P35222 1-781, looked up, β-catenin, endogenous in human lung microvascular endothelial cells; also called beta-catenin; source: endogenous, HLMVEC lysate or fixed HLMVECs) MATQADLMELDMAMEPDRKAAVSHWQQQSYLDSGIHSGATTTAPSLSGKGNPEEEDVDTSQVLYEWEQGFSQSFTQEQVADIDGQYAMTRAQRVRAAMFPETLDEGMQIPSTQFDAAHPTNVQRLAEPSQMLKHAVVNLINYQDDAELATRAIPELTKLLNDEDQVVVNKAAVMVHQLSKKEASRHAIMRSPQMVSAIVRTMQNTNDVETARCTAGTLHNLSHHREGLLAIFKSGGIPALVKMLGSPVDSVLFYAITTLHNLLLHQEGAKMAVRLAGGLQKMVALLNKTNVKFLAITTDCLQILAYGNQESKLIILASGGPQALVNIMRTYTYEKLLWTTSRVLKVLSVCSSNKPAIVEAGGMQALGLHLTDPSQRLVQNCLWTLRNLSDAATKQEGMEGLLGTLVQLLGSDDINVVTCAAGILSNLTCNNYKNKMMVCQVGGIEALVRTVLRAGDREDITEPAICALRHLTSRHQEAEMAQNAVRLHYGLPVVVKLLHPPSHWPLIKATVGLIRNLALCPANHAPLREQGAIPRLVQLLVRAHQDTQRRTSMGGTQQQFVEGVRMEEIVEGCTGALHILARDVHNRIVIRGLNTIPLFVQLLYSPIENIQRVAAGVLCELAQDKEAAEAIEAEGATAPLTELLHSRNEGVATYAAAVLFRMSEDKPQDYKKRLSVELTSSLFRTEPMAWNETADLGLDIGAQGEPLGYRQDDPSYRSFHSGGYGQDALGMDPMMEHEMGGHHPGADYPVDGLPDLGHAQDLMDGLPPGDSNQLAWFDTDL
 | binds | vascular endothelial (VE)-cadherin (protein, UniProt P33151 48-784) DWIWNQMHIDEEKNTSLPHHVGKIKSSVSRKNAKYLLKGEYVGKVFRVDAETGDVFAIERLDRENISEYHLTAVIVDKDTGENLETPSSFTIKVHDVNDNWPVFTHRLFNASVPESSAVGTSVISVTAVDADDPTVGDHASVMYQILKGKEYFAIDNSGRIITITKSLDREKQARYEIVVEARDAQGLRGDSGTATVLVTLQDINDNFPFFTQTKYTFVVPEDTRVGTSVGSLFVEDPDEPQNRMTKYSILRGDYQDAFTIETNPAHNEGIIKPMKPLDYEYIQQYSFIVEATDPTIDLRYMSPPAGNRAQVIINITDVDEPPIFQQPFYHFQLKENQKKPLIGTVLAMDPDAARHSIGYSIRRTSDKGQFFRVTKKGDIYNEKELDREVYPWYNLTVEAKELDSTGTPTGKESIVQVHIEVLDENDNAPEFAKPYQPKVCENAVHGQLVLQISAIDKDITPRNVKFKFILNTENNFTLTDNHDNTANITVKYGQFDREHTKVHFLPVVISDNGMPSRTGTSTLTVAVCKCNEQGEFTFCEDMAAQVGVSIQAVVAILLCILTITVITLLIFLRRRLRKQARAHGKSVPEIHEQLVTYDEEGGGEMDTTSYDVSVLNSVRRGGAKPPRPALDARPSLYAQVQKPPRHAPGAHGGPGEMAAMIEVKKDEADHDGDGPPYDTLHIYGYEGSESIAESLSSLGTDSSDSDVDYDFLNDWGPRFKMLAELYGSDPREELLY
